Consider one molecule from patent US7687473B2, “5-amino-4-imidazolecarboxamide riboside and its nucleobase as potentiators of antifolate transport and metabolism” (Health Research, Inc., priority 2005, dated 2010).

The test system of the assay is CCRF-CEM cells. Put plainly: Effect of protein kinase inhibitors on [3H]MTX uptake. In kind it is cell-based. As to conditions: Homo sapiens, 30 min preincubation, HEPES-buffered salts solution. From the text:
To determine whether protein phosphorylation is involved in the mechanism of Z potentiation, we began studies with a series of protein kinase (PK) inhibitors (PKI).

Where two headings read alike, the source gives them in different places.

With `CN[C@@H]1C[C@H]2O[C@@](C)([C@@H]1OC)n1c3ccccc3c3c4c(c5c6ccccc6n2c5c31)C(=O)NC4` [Staurosporine, staurosporine], the inhibition (in general, how much of the control response was suppressed) at 10 µM reads like this: (read-out: Inhibition of 30 min accumulation +TMTX) 15%; (read-out: Inhibition of 30 min accumulation +TMTX+Z) 8%.
